The values that follow come from publication PMC11629888.

Sequences of proteins named here, by UniProt entry; tags and fusion partners are left off. Residues count along the entry.
UniProt P14625, residues 22-803: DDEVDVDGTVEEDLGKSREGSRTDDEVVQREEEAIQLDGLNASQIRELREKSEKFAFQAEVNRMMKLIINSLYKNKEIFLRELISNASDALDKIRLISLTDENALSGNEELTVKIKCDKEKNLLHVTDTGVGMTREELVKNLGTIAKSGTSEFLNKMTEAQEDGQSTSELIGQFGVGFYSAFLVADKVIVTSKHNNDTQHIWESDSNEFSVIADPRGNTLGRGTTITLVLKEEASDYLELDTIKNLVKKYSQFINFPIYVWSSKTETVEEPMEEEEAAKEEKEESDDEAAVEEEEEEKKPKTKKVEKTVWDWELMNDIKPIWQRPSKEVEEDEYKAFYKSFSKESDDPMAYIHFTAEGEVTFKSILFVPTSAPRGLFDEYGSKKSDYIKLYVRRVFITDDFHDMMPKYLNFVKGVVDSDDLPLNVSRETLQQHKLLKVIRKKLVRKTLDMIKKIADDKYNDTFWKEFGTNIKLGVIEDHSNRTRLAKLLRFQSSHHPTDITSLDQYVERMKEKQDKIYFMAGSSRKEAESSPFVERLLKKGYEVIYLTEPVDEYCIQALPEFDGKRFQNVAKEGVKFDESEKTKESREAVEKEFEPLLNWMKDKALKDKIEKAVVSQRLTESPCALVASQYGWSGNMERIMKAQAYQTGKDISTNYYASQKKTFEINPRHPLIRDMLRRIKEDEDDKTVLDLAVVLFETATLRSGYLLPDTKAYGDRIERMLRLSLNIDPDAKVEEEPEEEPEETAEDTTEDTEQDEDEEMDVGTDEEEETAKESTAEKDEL

Results are given in words; binding and its absence hold for the method and conditions named. In cells and extracts the contact can be indirect. These calls come from enrichment with a bait or labelling near it, and not all partners need be listed. Sequences can lack the tags named with a protein.

The experiment has as its target T1, Flag-CCDC134 (internal Flag tag), stably reconstituted in CCDC134 knockout CAL-1 cells (human) (UniProt Q9H6E4).
T1 sequence: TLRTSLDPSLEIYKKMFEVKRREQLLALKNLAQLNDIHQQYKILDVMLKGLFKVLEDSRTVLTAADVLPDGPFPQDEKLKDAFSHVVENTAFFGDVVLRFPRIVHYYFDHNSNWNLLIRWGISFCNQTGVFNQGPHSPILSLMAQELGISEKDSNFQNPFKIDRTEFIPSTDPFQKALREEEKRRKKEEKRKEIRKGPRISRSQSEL
The experiment is described as follows: affinity purification with mass spectrometry; anti-Flag M2 immunoprecipitation of Flag-CCDC134 from 5 x 10^7 stably reconstituted sgCCDC134 CAL-1 cells against control CAL-1 (sgRen, empty vector); preclearing with Sepharose 6B; four replicates.

On to “endogenous Gp96 in CAL-1 cells (from UniProt P14625 22-803)”, for which the binding entry is listed as “binds”.
